Consider two molecules from PMC7529252.

The chains behind the UniProt entries cited, without tags or fusion partners. Where a name states a change or a piece, a line headed by the entry shows the natural chain unless it says otherwise.
UniProt Q9W0F4: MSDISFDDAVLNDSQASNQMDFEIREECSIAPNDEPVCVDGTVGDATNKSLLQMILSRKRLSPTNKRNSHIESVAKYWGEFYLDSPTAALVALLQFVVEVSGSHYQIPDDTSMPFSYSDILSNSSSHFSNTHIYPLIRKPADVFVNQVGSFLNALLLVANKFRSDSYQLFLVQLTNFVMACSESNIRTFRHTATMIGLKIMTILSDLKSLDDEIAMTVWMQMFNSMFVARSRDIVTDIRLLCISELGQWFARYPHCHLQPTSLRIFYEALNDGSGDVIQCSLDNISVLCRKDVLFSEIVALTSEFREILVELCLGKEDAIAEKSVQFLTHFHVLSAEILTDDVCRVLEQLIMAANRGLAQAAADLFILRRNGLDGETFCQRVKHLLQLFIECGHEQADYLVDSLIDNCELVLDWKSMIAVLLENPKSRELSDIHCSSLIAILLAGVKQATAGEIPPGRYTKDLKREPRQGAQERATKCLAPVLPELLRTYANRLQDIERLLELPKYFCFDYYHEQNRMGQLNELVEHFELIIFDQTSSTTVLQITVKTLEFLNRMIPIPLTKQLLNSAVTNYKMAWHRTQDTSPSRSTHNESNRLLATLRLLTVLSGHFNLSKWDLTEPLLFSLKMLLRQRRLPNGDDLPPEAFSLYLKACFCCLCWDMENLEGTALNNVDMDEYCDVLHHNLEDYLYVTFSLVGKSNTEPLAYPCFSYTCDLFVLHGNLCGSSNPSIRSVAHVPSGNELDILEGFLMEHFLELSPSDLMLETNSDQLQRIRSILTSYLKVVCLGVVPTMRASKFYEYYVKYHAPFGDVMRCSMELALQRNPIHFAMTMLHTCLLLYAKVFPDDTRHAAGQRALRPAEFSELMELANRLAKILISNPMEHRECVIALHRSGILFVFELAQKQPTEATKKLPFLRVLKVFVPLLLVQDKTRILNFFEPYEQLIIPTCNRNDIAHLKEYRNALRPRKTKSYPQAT
UniProt Q7JQU5: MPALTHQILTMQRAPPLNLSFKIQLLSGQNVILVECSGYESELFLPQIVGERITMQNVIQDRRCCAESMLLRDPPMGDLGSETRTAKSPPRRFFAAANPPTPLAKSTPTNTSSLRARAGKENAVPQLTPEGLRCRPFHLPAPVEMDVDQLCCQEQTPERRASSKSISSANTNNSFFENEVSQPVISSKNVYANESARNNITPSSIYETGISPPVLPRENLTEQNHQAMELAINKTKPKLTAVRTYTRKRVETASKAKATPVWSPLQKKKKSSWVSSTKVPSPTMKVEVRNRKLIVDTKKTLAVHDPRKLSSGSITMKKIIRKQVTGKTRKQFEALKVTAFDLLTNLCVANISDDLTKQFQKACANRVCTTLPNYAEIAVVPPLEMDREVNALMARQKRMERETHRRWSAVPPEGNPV

For assay [1], the target named is SNM-EGFP (Drosophila melanogaster) (UniProt Q9W0F4). Description: affinity purification with mass spectrometry; EGFP-tagged bait captured on uMACS anti-GFP beads from cleared homogenates of 6000-8000 mass-isolated testes of late larvae and early pupae; lysis buffer 20 mM Tris-HCl pH 7.5, 150 mM NaCl, 2 mM MgCl2, 0.1% NP-40, 5% glycerol, 1 mM DTT, 50 U/ml …; 4 C; four replicates for each genotype; EGFP as control; MS/MS of co-purified proteins.

Assay [2] addresses MNM-EGFP (Drosophila melanogaster). The assay is described as above.

No constants are given. Whether binding was seen depends on the method and setting. In cells and extracts the contact can be indirect. These calls come from enrichment with a bait or labelling near it, and not all partners need be listed.

As to UNO (endogenous) (from UniProt Q7JQU5), the binding entry in assay [1] is listed as “binds”.

B1: TEF (endogenous) (protein, UniProt Q7K4M4 1-649)
chain: MSKFLDMLSGSQCVSLEKCGDVVVSTNDCMIALYCHFCRDLFTQLPEFLRHLQSNHSDVLHFTKEHNVYSVEELLSGEQGKAHEDAQSAGHNSSSGDSSSLMNSEDSRAIEGSEDNSDNSPMKPEQIGKQSEINLLAEVTNILLQTNDKELKPENGVFNRPRKKANNESSSLKICDLKSHTIARTSRKRMSMVKNRILRVLDSDLSAKLEIKPPEPNSKLSITEPIQEDNIPGTCFDTPTKPIPSSSQLSVRKSSLTEANQICTKYAEKKTAPTMPKLLNCVPKPILTSQQAHTNAEISEINETYHLAASQVTKTTKTFPVKITQIDILQPVKLPKTLITPINEEGVSDQVENSTNNINNAQSLPKENTKKFFKKRSELGIKAQGSPNKFFKIIKSKANPIIVKRVQTTSAKASTNKIQIRSNDKTNCFASEFNSTKIRKLKMENCVDLKSEDPCANTNTRLNKLATISSCEILKAVGLPAITDNPIEDTLLPDELETIRKKADQFIKIYRKYDSIWNYRKICPPAKPDFISQQIFALTREVNKTMLCNLANSDIKGIINQISVWHYNIYTQYIDLDTISENARYTLKLFSFLPVSFAYFCKCCDDIFILKKEYLKHLISHQVRFQCTKCIKVFKYKGYYEKHLRNAHS
B1: in assay [2], the binding result is “binds”.
